Assay results: PubChem BioAssay
Inconclusive means that the source gave no clear call. Such entries were picked first, then a sample of the others. Where the call is inconclusive, the potency comes from a doubtful curve fit. The source made the active and inactive calls. Unless noted, no cut-off is given here; in the data, nearly all actives have AC50 up to about 23 µM.

assay: growth inhibition of DIPG glioma cells, dose response, cell-based, SU-DIPG-IV, MIPE4.0, CellTiter-Glo, qHTS (AID 1347063; cut-off not given, nearly all actives have AC50 up to about 30 µM;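 note: compound exposure lasted 48 hours before the viability readout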); conditions: SU-DIPG-IV viability, CellTiter-Glo ATP luminescence

SMILES	AC50	outcome
COc1ccc(OC)c(-c2nnc3ccc(-c4ccc(OC)c(O[C@@H]5CCOC5)c4)nn23)c1	active: 14.8 µM	
CC(C(=O)O)c1ccc(-c2ccccc2)c(F)c1 (stereo not given)	inconclusive: 23.5 µM [cytotoxic]	
Cc1ccc(NC(=O)c2ccc(CN3CCN(C)CC3)cc2)cc1Nc1nccc(-c2cccnc2)n1		inactive
CCCn1c(=O)c2[nH]c(-c3cnn(Cc4cccc(C(F)(F)F)c4)c3)nc2n(CC)c1=O	inconclusive: 1.48 µM [cytotoxic]	
CCCc1cc(C(N)=S)ccn1	inconclusive: 0.00235 µM	

assay: growth inhibition of DIPG glioma cells, dose response, cell-based, SU-DIPG-XIII, MIPE5.0, CellTiter-Glo, qHTS (AID 1347064); conditions: SU-DIPG-XIII viability, CellTiter-Glo ATP luminescence;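 for AC50: cells exposed to compound for 48 hours before the viability read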

SMILES	outcome	AC50
CCCCCCCCCCCCCCCCCCCCCCO	inactive	
O=C(c1ccc(/C=C/c2n[nH]c3ccccc23)cc1)N1CCNCC1		active: 8.33 µM
CC(C)C[C@H](NC(=O)c1cc2ccccc2s1)C(=O)N1CCN(C(=O)[C@H](CO)NS(=O)(=O)c2ccc(Cl)cc2Cl)CC1		inconclusive: 18.6 µM [cytotoxic]
CN(C)CCCNC(=O)c1ccc(-c2cc(O)c3ncccc3c2)cc1		inconclusive: 33.2 µM [cytotoxic]
CCOC(=O)[C@H]1O[C@@H]1C(=O)N[C@@H](CC(C)C)C(=O)NCCC(C)C		inconclusive: 20.9 µM [cytotoxic]
CN(C)CCc1c[nH]c2ccc(CS(=O)(=O)N3CCCC3)cc12		inconclusive: 7.42 µM [cytotoxic]
CN(C)CC(C)(C)CNc1nn2c(-c3ccccc3)nnc2cc1C1CCC1	inactive	
CC(=O)O[C@H]1C(=O)[C@@]2(C)C([C@H](OC(=O)c3ccccc3)[C@]3(O)C[C@H](OC(=O)[C@H](O)[C@@H](NC(=O)c4ccccc4)c4ccccc4)C(C)=C1C3(C)C)[C@]1(OC(C)=O)CO[C@@H]1C[C@@H]2O (stereo not given in full)	inactive	
N=C(N)c1ccc(OCCCCCOc2ccc(C(=N)N)cc2)cc1		inconclusive: 13.2 µM [cytotoxic]
COc1ccc(C(=O)CC2(O)C(=O)Nc3c(Cl)ccc(Cl)c32)cc1 (stereo not given)		active: 11.8 µM
CNCCCC12CCC(c3ccccc31)c1ccccc12		inconclusive: 20.9 µM [cytotoxic]
C[C@@H]1C[C@H]2[C@@H]3CCC4=CC(=O)C=C[C@]4(C)[C@@]3(Cl)[C@@H](O)C[C@]2(C)[C@@]1(OC(=O)c1ccco1)C(=O)CCl		inconclusive: 26.3 µM [cytotoxic]
O=C1CN2Cc3c(ccc(Cl)c3Cl)N=C2N1	inactive	
CN(C)c1ccc(C(=C2C=CC(=[N+](C)C)C=C2)c2ccc(N(C)C)cc2)cc1		active: 1.48 µM
CCOC(=O)C1=C(O)C(=O)N(Cc2ccccc2)C1		inconclusive: 10.5 µM [cytotoxic]
CCN(CC)CCOc1ccc(Nc2ncc3cc(-c4c(Cl)cccc4Cl)c(=O)n(C)c3n2)cc1		inconclusive: 0.372 µM [cytotoxic]
NCC1CCC(C(=O)O)CC1 (stereo not given)		inconclusive: 0.000574 µM [cytotoxic]
CC(C)C[C@H](NC(=O)CNC(=O)c1cc(Cl)ccc1Cl)B(O)O		inconclusive: 0.0417 µM [cytotoxic]
CN1CCN(C2=Nc3cc(Cl)ccc3Nc3ccccc32)CC1		inconclusive: 23.5 µM [cytotoxic]
COc1cc2nccc(Oc3ccc(NC(=O)NC4CC4)c(Cl)c3)c2cc1C(N)=O		active: 4.68 µM

Some values from above.
AC50, COc1cc2nccc(Oc3ccc(NC(=O)NC4CC4)c(Cl)c3)c2cc1C(N)=O is entered as active: 4.68 µM
outcome, CN(C)CC(C)(C)CNc1nn2c(-c3ccccc3)nnc2cc1C1CCC1 is entered as inactive
AC50, CN(C)c1ccc(C(=C2C=CC(=[N+](C)C)C=C2)c2ccc(N(C)C)cc2)cc1 is entered as active: 1.48 µM

Next part.

SMILES	outcome	AC50
OCCN(CCO)c1nc(N2CCCCC2)c2nc(N(CCO)CCO)nc(N3CCCCC3)c2n1		inconclusive: 37.2 µM [cytotoxic]
CC1=C(C)C(=O)C(C(CCCCCC(=O)O)c2ccccc2)=C(C)C1=O (stereo not given)		inconclusive: 1.48 µM [cytotoxic]
Cn1c(=O)c(Oc2ccc(F)cc2F)cc2cnc(NC3CCOCC3)nc21	inactive	
Cc1cnc(C(=O)NCCc2ccc(S(=O)(=O)NC(=O)NC3CCCCC3)cc2)cn1	inactive	
O=C1CCCC(=O)C1C(=O)c1ccc(C(F)(F)F)cc1[N+](=O)[O-]	inactive	
CCC[C@@H](C=O)NC(=O)[C@H](CC(C)C)NC(=O)[C@H](CC(C)C)NC(=O)OCc1ccccc1		inconclusive: 0.263 µM [cytotoxic]
CC(=O)OCC(=O)[C@@]1(O)CC[C@H]2[C@@H]3CCC4=CC(=O)CC[C@]4(C)[C@H]3C(=O)C[C@@]21C		inconclusive: 0.00105 µM
Cn1cnc2c(F)c(Nc3ccc(Br)cc3F)c(C(=O)NOCCO)cc21		inconclusive: 2.63 µM [cytotoxic]
CC(C)C[C@@H](C=O)NC(=O)[C@H](CC(C)C)NC(=O)[C@H](CC(C)C)NC(=O)OCc1ccccc1		active: 0.059 µM
Cc1c(-c2ccc(O)cc2)n(Cc2ccc(OCCN3CCCCCC3)cc2)c2ccc(O)cc12		inconclusive: 26.3 µM [cytotoxic]
Cc1c(Cn2c(C)nc3c(C(=O)O)cc(N4CCOCC4)cc32)cccc1C(F)(F)F	inactive	
CC(C)(C#N)c1cc(Cn2cncn2)cc(C(C)(C)C#N)c1		inconclusive: 0.00132 µM
COc1cc2ncnc(-n3nc(-c4ccccn4)nc3N)c2cc1OC		inconclusive: 6.61 µM [cytotoxic]
NS(=O)(=O)c1cc2c(cc1Cl)NC(C(Cl)Cl)NS2(=O)=O (stereo not given)		inconclusive: 11.8 µM [cytotoxic]
NC(=O)c1ccc2[nH]ccc2c1	inactive	
COc1ccc(OC)c(-c2nnc3ccc(-c4ccc(OC)c(O[C@@H]5CCOC5)c4)nn23)c1		inconclusive: 3.32 µM [cytotoxic]
CC(C(=O)O)c1ccc(-c2ccccc2)c(F)c1 (stereo not given)	inactive	
Cc1ccc(NC(=O)c2ccc(CN3CCN(C)CC3)cc2)cc1Nc1nccc(-c2cccnc2)n1		inconclusive: 0.00186 µM
CCCn1c(=O)c2[nH]c(-c3cnn(Cc4cccc(C(F)(F)F)c4)c3)nc2n(CC)c1=O		inconclusive: 16.6 µM [cytotoxic]
CCCc1cc(C(N)=S)ccn1	inactive	
